Experimental findings from US20190022072A1, “USAGE OF ACETAZOLAMIDE FOR TREATING ICH, PARTICULARLY HYPERGLYCEMIC ICH” (priority 2017, published 2019) are described below.

This series in a line: plasma glucose levels in normoglycemic and hyperglycemic rats with intracerebral hemorrhage treated with AZA. The format is in vivo, Wistar rats.

For `CC(=O)Nc1nnc(S(N)(=O)=O)s1` [AZA, acetazolamide], the “glucose levels of the rats” value came to 386.75 mg/dL (hyperglycemic (STZ) rats treated with AZA 5 mg/kg oral, day 1 post-induction of ICH); 313.00 mg/dL (hyperglycemic (STZ) rats treated with AZA 5 mg/kg oral, day 4 post-induction of ICH); 381.25 mg/dL (hyperglycemic (STZ) rats treated with AZA 5 mg/kg oral, day 7 post-induction of ICH); 117.75 mg/dL (normoglycemic rats treated with AZA 5 mg/kg oral, day 1 post-induction of ICH); 132.25 mg/dL (normoglycemic rats treated with AZA 5 mg/kg oral, day 4 post-induction of ICH); 117.25 mg/dL (normoglycemic rats treated with AZA 5 mg/kg oral, day 7 post-induction of ICH).
